Results are given in words; binding and its absence hold for the method and conditions named. Binding seen in cells or lysates may run through a third protein. Some entries that bind do so weakly or less than the wild type. Where a sequence is shown, tags or fusion partners need not be part of it.
Molecular target: T1, EGFP-WBP2 (WW domain-binding protein 2) (UniProt Q969T9)
T1 sequence: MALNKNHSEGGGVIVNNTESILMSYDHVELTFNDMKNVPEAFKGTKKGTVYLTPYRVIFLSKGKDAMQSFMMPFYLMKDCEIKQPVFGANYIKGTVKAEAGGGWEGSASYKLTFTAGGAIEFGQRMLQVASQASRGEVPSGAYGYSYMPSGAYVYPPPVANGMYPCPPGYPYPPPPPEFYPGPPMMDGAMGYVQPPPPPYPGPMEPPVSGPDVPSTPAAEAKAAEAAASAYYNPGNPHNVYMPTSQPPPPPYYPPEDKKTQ
Assay: co-IP; lysates of MCF-7 cells (EGFP control group and EGFP-WBP2 group) incubated with WBP2 or ERα antibodies overnight, protein A/G beads 3 h at RT, western blotting

By UniProt entry, the sequences of proteins in these tests, tags left out.
UniProt P03372: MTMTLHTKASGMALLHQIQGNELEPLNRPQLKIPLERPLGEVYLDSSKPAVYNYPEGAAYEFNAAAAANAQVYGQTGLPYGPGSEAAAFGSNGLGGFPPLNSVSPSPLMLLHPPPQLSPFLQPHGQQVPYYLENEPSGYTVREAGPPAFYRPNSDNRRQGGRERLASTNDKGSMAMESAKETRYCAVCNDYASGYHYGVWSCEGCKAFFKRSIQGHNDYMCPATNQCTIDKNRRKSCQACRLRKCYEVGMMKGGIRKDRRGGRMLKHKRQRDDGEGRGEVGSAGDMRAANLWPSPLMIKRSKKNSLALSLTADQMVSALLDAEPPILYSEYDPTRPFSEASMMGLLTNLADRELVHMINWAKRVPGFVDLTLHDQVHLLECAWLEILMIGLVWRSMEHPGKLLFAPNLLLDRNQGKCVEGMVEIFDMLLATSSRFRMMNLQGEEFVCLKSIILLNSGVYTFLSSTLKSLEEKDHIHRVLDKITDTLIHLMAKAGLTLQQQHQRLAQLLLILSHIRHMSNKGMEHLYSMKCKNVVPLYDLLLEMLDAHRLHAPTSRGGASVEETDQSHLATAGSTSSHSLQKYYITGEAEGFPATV

binding: binds
Substance: Oestrogen receptor alpha (ERα) (from UniProt P03372 1-595)

Source: PMC6048156
